No constants are given. Whether binding was seen depends on the method and setting. In cells and extracts the contact can be indirect.
Target: c-Met (Mesenchymal-epithelial transition factor) (human (endogenous in human RCC cell lines)) (UniProt P08581)
Assay: co-IP; whole-cell lysate (RIPA buffer with protease and phosphatase inhibitors) incubated with the detection antibody overnight at 4 °C, then 50 µl protein A/G beads for 6 h; cells and precipitating antibody of Figure S2 not told

By UniProt entry, the sequences of proteins in these tests, tags left out. Residues count along the entry.
UniProt P08581, residues 25-1390: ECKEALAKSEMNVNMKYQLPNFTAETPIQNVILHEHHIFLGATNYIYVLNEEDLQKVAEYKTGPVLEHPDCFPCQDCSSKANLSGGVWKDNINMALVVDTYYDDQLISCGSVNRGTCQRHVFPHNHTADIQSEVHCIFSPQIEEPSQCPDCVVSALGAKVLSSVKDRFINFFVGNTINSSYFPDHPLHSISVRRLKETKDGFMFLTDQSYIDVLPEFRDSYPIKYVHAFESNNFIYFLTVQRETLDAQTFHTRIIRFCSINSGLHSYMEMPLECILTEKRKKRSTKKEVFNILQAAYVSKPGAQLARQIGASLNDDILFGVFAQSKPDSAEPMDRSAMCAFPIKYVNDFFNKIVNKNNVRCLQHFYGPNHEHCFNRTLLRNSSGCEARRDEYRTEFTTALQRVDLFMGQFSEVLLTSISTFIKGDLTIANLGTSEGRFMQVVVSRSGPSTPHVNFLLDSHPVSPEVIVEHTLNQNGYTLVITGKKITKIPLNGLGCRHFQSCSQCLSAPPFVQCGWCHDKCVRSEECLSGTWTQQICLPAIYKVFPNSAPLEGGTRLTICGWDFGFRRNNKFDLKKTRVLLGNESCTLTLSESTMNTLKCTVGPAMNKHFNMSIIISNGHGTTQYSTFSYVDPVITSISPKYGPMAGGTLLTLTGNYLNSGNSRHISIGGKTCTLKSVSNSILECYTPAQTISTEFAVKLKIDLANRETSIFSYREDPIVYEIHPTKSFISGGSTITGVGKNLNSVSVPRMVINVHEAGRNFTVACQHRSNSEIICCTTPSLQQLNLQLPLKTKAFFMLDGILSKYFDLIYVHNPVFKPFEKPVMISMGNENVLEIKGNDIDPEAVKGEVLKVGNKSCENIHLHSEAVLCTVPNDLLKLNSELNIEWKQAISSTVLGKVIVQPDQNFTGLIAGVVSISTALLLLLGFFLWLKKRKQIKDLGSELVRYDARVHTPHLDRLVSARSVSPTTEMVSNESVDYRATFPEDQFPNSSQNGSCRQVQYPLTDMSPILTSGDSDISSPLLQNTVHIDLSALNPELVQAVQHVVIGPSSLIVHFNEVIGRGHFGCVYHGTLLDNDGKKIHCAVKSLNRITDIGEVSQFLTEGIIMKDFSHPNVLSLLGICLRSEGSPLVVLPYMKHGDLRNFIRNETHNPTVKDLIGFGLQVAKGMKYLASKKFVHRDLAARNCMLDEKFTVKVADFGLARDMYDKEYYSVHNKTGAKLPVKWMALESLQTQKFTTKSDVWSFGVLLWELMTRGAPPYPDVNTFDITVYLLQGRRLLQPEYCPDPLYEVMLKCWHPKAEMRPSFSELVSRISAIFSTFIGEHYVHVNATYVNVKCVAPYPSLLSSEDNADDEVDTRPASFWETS

B1: ORP5 (Oxysterol-binding protein-related protein 5) (protein, UniProt Q9H0X9 1-879)
chain: MKEEAFLRRRFSLCPPSSTPQKVDPRKLTRNLLLSGDNELYPLSPGKDMEPNGPSLPRDEGPPTPSSATKVPPAEYRLCNGSDKECVSPTARVTKKETLKAQKENYRQEKKRATRQLLSALTDPSVVIMADSLKIRGTLKSWTKLWCVLKPGVLLIYKTPKVGQWVGTVLLHCCELIERPSKKDGFCFKLFHPLDQSVWAVKGPKGESVGSITQPLPSSYLIFRAASESDGRCWLDALELALRCSSLLRLGTCKPGRDGEPGTSPDASPSSLCGLPASATVHPDQDLFPLNGSSLENDAFSDKSERENPEESDTETQDHSRKTESGSDQSETPGAPVRRGTTYVEQVQEELGELGEASQVETVSEENKSLMWTLLKQLRPGMDLSRVVLPTFVLEPRSFLNKLSDYYYHADLLSRAAVEEDAYSRMKLVLRWYLSGFYKKPKGIKKPYNPILGETFRCCWFHPQTDSRTFYIAEQVSHHPPVSAFHVSNRKDGFCISGSITAKSRFYGNSLSALLDGKATLTFLNRAEDYTLTMPYAHCKGILYGTMTLELGGKVTIECAKNNFQAQLEFKLKPFFGGSTSINQISGKITSGEEVLASLSGHWDRDVFIKEEGSGSSALFWTPSGEVRRQRLRQHTVPLEEQTELESERLWQHVTRAISKGDQHRATQEKFALEEAQRQRARERQESLMPWKPQLFHLDPITQEWHYRYEDHSPWDPLKDIAQFEQDGILRTLQQEAVARQTTFLGSPGPRHERSGPDQRLRKASDQPSGHSQATESSGSTPESCPELSDEEQDGDFVPGGESPCPRCRKEARRLQALHEAILSIREAQQELHRHLSAMLSSTARAAQAPTPGLLQSPRSWFLLCVFLACQLFINHILK
binding: no binding
